# From patent US9567380B1, “Microtubule organizing center (MTOC)-inactivating peptides” (THE RESEARCH FOUNDATION FOR THE STATE UNIVERSITY OF NEW YORK, priority 2015, dated 2017)
# Experiments:
# [1] = system: human MCF-7 breast cancer cells; experiment: Mitotic arrest after live cell peptide transfection (Chariot) of MCF-7 cells; assay type: cell-based
# Experimental: (§1) MCF-7 and MDA-MB-231 (ATCC) cells were maintained in 25 cm^2 tissue culture treated Corning flasks (Sigma-Aldrich) in DMEM complete medium with Glutamax-1 and supplemented with 10% fetal bovine serum. MCF-7 DMEM complete medium was additionally supplemented with 0.01 mg/mL bovine insulin (Sigma-Aldrich). Flasks were maintained at 37° C. in 5% CO2, 95% air, and cells were passaged every 5-7 days using 1 mL TrypLE (Life Technologies).
# (§2) For live cell peptide transfection we used the Chariot system (Active Motif) according to the manufacturer's instructions. Cells were seeded into 35 mm tissue culture-treated dishes containing coverslips and grown in complete medium to ˜60% confluency. 1 μg of Kinesin-14 Tail peptide PγTR (GenScript) was diluted in 100 μL 1×PBS on ice. 6 μL of 1/10 PBS-diluted Chariot reagent was further diluted into 100 μL sterile water on ice in a separate tube. Diluted peptide and diluted Chariot were combined and incubated at room temperature for 30 minutes to allow the Chariot-peptide complex to form. Following incubation, media was aspirated from cells, which were then washed once in 1×PBS. […]
# (§3) For statistical analysis of phenotypes, n values were chosen as number of cells per strain needed to ensure adequate power to detect significant outcomes. […] For cell cycle arrest by 1 μg transfection of PγTR, 12 fields at 200× were counted. […]
# MDA-MB-231 cells = experiment: Mitotic arrest after live cell peptide transfection (Chariot) of MDA-MB-231 cells; assay type: cell-based, human
# Experimental: as §1, §2, §3
# [2] = 24 h after transfection with 1 μg peptide
sequence,measurement,setting,value
"YSKFKESAAPQLKDLIGSGAEKDHEYSLQLQ (6-His tag) [PγTR, Kinesin-14 Pkl1 Tail peptide, γ-TuRC targeting and regulatory; used 6-His tagged]","percentage of population with very low but detectable levels of peptide at the centrosome, cells appeared normal",[1]; 24 h after transfection,4.3%
same,cells transfected with peptide based on fluorescence staining using the 6-His tag,[1]; [2],43.3%
same,"percentage of population with very low but detectable levels of peptide at the centrosome, cells appeared normal",MDA-MB-231 cells; 24 h after transfection,5.1%
same,cells transfected with peptide based on fluorescence staining using the 6-His tag,MDA-MB-231 cells; [2],27.7%
